# Where a name gives a salt, the structure may show the parent alone. Some of the results follow. Most entries show no effect beyond the scatter of the controls.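 Melting temperature was read by differential scanning fluorimetry in a single-replicate pilot screen of a library of approved drugs and clinical or known-target compounds. Compounds raising the melting point by at least 2 °C were the top stabilizing hits, and negative shifts mean destabilization.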
# Tested on: SARS-CoV-2 main protease (Mpro, nsp5)
# Test: thermal shift ΔTm of Mpro relative to plate average Tm; higher = stronger thermal stabilization of Mpro (binding)
# Conditions: 10 µM; protein concentration 1 µM
row,SMILES,thermal shift ΔTm of Mpro [°C]
1,N#CC(C#N)=Cc1ccc(O)c(O)c1,0.57
2,O=C(O)COc1cccc(CN(Cc2ccc(-n3cccn3)cc2)S(=O)(=O)c2cccnc2)c1 [Taprenepag],0.198
3,CC(=O)OCC(=O)[C@@]1(O)CC[C@H]2[C@@H]3CCC4=CC(=O)C=C[C@]4(C)[C@H]3[C@@H](O)C[C@@]21C [Prednisolone Acetate],-0.0934
4,Cc1cccc(Cc2c[nH]cn2)c1C [Detomidine HCl],0.125
5,CC[C@H](c1ccc(O)cc1)[C@@H](CC)c1ccc(O)cc1 [Hexestrol],-0.211
6,Cc1c(Nc2ncccc2C(=O)O)cccc1C(F)(F)F [Flunixin Meglumin],0.197
7,CC(ONC(=O)c1cc(C(F)(F)F)cc(C(F)(F)F)c1)C(=O)Nc1ccc(Cl)cc1 (centres undefined),0.826
8,OC[C@@H](O)CN1CCN(c2ccccc2)CC1 [Levodropropizine],-0.0269
9,N#CC1(c2ccc(NC(=O)c3cccnc3NCc3ccncc3)cc2)CCCC1 [Apatinib],-0.224
10,C=C[C@H]1[C@H](O[C@@H]2O[C@H](CO)[C@@H](O)[C@H](O)[C@H]2O)OC=C(C(=O)OC)[C@H]1CCOC(=O)c1cc(O)c(O)c(O)c1 [Cornuside],-1.14
11,NNC(=O)c1ccncc1 [Isoniazid],0.0867
12,CC1(C)C=C(CN2C/C(=C\c3ccc(F)cc3)C(=O)/C(=C/c3ccc(F)cc3)C2)C(C)(C)N1O,-0.183
13,Cc1ccc(S(=O)(=O)OCC(=O)Nc2ccc(C(=O)O)c(O)c2)cc1,0.0928
14,C[C@H]1C[C@H]2[C@@H]3CCC4=CC(=O)C=C[C@]4(C)[C@H]3C(=O)C[C@]2(C)[C@@]1(O)C(=O)CO [Meprednisone],-0.141
15,CCC(=O)OCC(=O)[C@@]1(OC(=O)CC)[C@@H](C)C[C@H]2[C@@H]3CCC4=CC(=O)C=C[C@]4(C)[C@@]3(F)[C@@H](O)C[C@@]21C [Betamethasone Dipropionate],-0.209
16,O=C(Nc1ncc(SCCN2CCCC2)s1)[C@]1(c2ccc(S(=O)(=O)C3CC3)cc2)C[C@H]1C1CCCCC1,-0.266
17,O=C(O)CCCN1CCC(O[C@@H](c2ccc(Cl)cc2)c2ccccn2)CC1 [Bepotastine Besilate],-0.0236
18,O=C(O)c1cccnc1 [Nicotinic Acid],-0.0117
19,O=C(Oc1coc(CSc2ncccn2)cc1=O)c1ccc([N+](=O)[O-])cc1,-0.107
20,CC1=C(C(=O)O)N2C(=O)C(N)C2SC1 (centres undefined) [Cefalexine EP IMpurity B],0.237

row,SMILES,thermal shift ΔTm of Mpro [°C]
1,Cc1cc(=O)c(C(=O)N[C@@H](C(=O)N[C@@H]2C(=O)N3C(C(=O)O)=C(CSc4nnnn4C)CS[C@H]23)c2ccc(O)cc2)c[nH]1 [Cefpiramide acid],0.0709
2,CCCCc1oc2ccccc2c1C(=O)c1cc(I)c(OCCN(CC)CC)c(I)c1 [Amiodarone HCl],0.109
3,CC1(N2CCC(n3c([C@@H]4CCCNC4)nc4ccccc43)CC2)CCCCCCC1 [MCOPPB trihydrochlride],0.249
4,CN1CCN(c2ccc3nc(-c4c(N)c5c(F)cccc5[nH]c4=O)[nH]c3c2)CC1 [Dovitinib (TKI-258) Dilactic Acid],0.351
5,"CN1CCN(c2ccc3nc(-c4c(N)c5c(F)cccc5[nH]c4=O)[nH]c3c2)CC1 [Dovitinib (TKI-258, CHIR-258)]",0.0464
6,CN1CCN(c2ccc3nc(-c4c(N)c5c(F)cccc5[nH]c4=O)[nH]c3c2)CC1 [Dovitinib (TKI258) Lactate],-0.146
7,O=c1[nH]c(=O)n([C@H]2C[C@H](O)[C@@H](CO)O2)cc1I [Idoxuridine],0.0622
8,Cc1cccc(N(C)C(=S)Oc2ccc3ccccc3c2)c1 [Tolnaftate],-0.00675
9,C=CCNC1=C2C[C@@H](C)C[C@H](OC)[C@H](O)[C@@H](C)/C=C(\C)[C@H](OC(N)=O)[C@@H](OC)/C=C\C=C(/C)C(=O)NC(=CC1=O)C2=O [17-AAG (Tanespimycin)],-0.0332
10,COP(=O)(OC)C(O)C(Cl)(Cl)Cl (centres undefined) [Chlorophos],0.0198
11,CCN1CCCC1CNC(=O)c1cc(S(N)(=O)=O)ccc1OC (centres undefined) [Sulpiride],0.228
12,COc1ccc(-c2ccc3cc(C(=O)O)ccc3c2)cc1C12CC3CC(CC(C3)C1)C2 [Adapalene],0.264
13,COc1cc2c(NC3CCN(CC4CCCCC4)CC3)nc(N3CCCN(C(C)C)CC3)nc2cc1OCCCN1CCCCC1,-0.162
14,Nc1cc(C(F)(F)F)c(-c2nc(N3CCOCC3)nc(N3CCOCC3)n2)cn1,0.0216
15,CC12CC3CC(C)(C1)CC(N)(C3)C2 [Memantine HCl],0.0502
16,CN1C(C(=O)Nc2ccccn2)=C(O)c2sc(Cl)cc2S1(=O)=O [Lornoxicam],0.144
17,Cc1ccc(CNc2ncnc3ccc(-c4ccc(CO)o4)cc23)o1,-0.0386
18,C/C(=N\NC(=O)c1cccc(S(=O)(=O)N2CCN(C)CC2)c1)c1cc(Cl)ccc1O [Seclidemstat],0.0414
19,O=C(c1cc(C2CC2)on1)N(C1CCCCC1)C1CCCCC1,-0.0446

# 2 entries from above, as tab-separated lines.
row	SMILES	thermal shift ΔTm of Mpro [°C]
9	N#CC1(c2ccc(NC(=O)c3cccnc3NCc3ccncc3)cc2)CCCC1 [Apatinib]	-0.224
10	C=C[C@H]1[C@H](O[C@@H]2O[C@H](CO)[C@@H](O)[C@H](O)[C@H]2O)OC=C(C(=O)OC)[C@H]1CCOC(=O)c1cc(O)c(O)c(O)c1 [Cornuside]	-1.14

# Reference: the supplement of paper PMC8166895
